Results: article PMC3707915
Results are given in words; binding and its absence hold for the method and conditions named. In cells and extracts the contact can be indirect. Some entries that bind do so weakly or less than the wild type.

Chains of the proteins cited; added tags and fusions are not shown.
UniProt P53742: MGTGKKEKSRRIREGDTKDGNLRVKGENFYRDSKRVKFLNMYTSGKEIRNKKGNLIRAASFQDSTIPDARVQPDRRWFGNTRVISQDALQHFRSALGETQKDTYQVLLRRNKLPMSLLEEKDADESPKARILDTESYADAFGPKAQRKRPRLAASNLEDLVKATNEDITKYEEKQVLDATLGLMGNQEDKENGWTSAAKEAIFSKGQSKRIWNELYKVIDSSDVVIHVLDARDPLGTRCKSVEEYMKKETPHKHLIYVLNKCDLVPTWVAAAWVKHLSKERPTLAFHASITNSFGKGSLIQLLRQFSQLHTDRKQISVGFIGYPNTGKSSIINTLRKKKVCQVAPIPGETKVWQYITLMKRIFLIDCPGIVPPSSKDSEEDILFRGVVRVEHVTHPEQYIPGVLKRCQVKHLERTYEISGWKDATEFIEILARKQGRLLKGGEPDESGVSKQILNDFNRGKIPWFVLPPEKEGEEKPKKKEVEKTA

T1: Nog1-TAP (S. cerevisiae) (UniProt Q02892)
T1 sequence: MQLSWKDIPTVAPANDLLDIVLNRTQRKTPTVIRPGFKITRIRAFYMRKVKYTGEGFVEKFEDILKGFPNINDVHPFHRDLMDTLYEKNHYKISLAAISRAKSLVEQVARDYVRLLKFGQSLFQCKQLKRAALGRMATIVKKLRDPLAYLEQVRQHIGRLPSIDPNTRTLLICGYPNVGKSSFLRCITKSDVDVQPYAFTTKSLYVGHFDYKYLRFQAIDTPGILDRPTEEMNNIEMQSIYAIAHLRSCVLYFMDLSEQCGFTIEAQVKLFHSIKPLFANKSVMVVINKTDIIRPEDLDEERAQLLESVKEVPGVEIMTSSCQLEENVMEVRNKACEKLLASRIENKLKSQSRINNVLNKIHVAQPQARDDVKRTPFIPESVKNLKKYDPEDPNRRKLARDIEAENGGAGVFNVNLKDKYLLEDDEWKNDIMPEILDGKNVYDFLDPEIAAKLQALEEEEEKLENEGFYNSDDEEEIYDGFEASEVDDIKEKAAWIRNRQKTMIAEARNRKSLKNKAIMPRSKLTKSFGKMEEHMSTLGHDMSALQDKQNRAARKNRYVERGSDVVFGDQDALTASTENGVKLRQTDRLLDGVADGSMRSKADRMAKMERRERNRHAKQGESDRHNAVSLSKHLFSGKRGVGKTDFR

B1: Rsa4 (protein, UniProt P25382 1-515)
chain: MSTLIPPPSKKQKKEAQLPREVAIIPKDLPNVSIKFQALDTGDNVGGALRVPGAISEKQLEELLNQLNGTSDDPVPYTFSCTIQGKKASDPVKTIDITDNLYSSLIKPGYNSTEDQITLLYTPRAVFKVKPVTRSSSAIAGHGSTILCSAFAPHTSSRMVTGAGDNTARIWDCDTQTPMHTLKGHYNWVLCVSWSPDGEVIATGSMDNTIRLWDPKSGQCLGDALRGHSKWITSLSWEPIHLVKPGSKPRLASSSKDGTIKIWDTVSRVCQYTMSGHTNSVSCVKWGGQGLLYSGSHDRTVRVWDINSQGRCINILKSHAHWVNHLSLSTDYALRIGAFDHTGKKPSTPEEAQKKALENYEKICKKNGNSEEMMVTASDDYTMFLWNPLKSTKPIARMTGHQKLVNHVAFSPDGRYIVSASFDNSIKLWDGRDGKFISTFRGHVASVYQVAWSSDCRLLVSCSKDTTLKVWDVRTRKLSVDLPGHKDEVYTVDWSVDGKRVCSGGKDKMVRLWTH

Molecular target: T1, Nog1-TAP (S. cerevisiae)
Test: co-IP; Nog1-TAP and associated proteins affinity purified on an IgG matrix from extracts of wild type or conditional expression mutants of RPL2, RPL43, RPL21, RPL25 grown in galactose or glucose; purified fractions analysed by SDS-PAGE and western blotting with specific antibodies

binding | Molecule
binds | Nog2 (from UniProt P53742 1-486)
binds | B1
